This note sets out measurements from the supplement of paper PMC4604168 (melanoma cell lines).

Some test systems named below: MZ2-MEL; MeWo; RPMI7951; RVH-421; SkMel28; SkMel30; SkMel5; UACC257; UACC62.
What all share (experiment): cleaved PARP positive nuclei fraction relative to DMSO control; melanoma cells; higher = more apoptosis
Conditions in all cases: library dose: low library concentration; 72 h

This is one part of the list. Single values are uncertain, as repeats are few or missing.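 Cells were imaged in 1,536-well plates, and nuclei stained with an antibody against cleaved PARP were counted against all DNA-stained nuclei to give the apoptosis fraction. Screening doses were chosen to leave most cells alive, and resting and induced cleaved-PARP levels differ strongly between cell lines.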

With `O=C(CCCCCCC(=O)Nc1ccccc1)NO` [vorinostat] + O=C1NC(=O)/C(=C/c2ccc(-c3ccc(F)cc3O)o2)S1 [AS252424] (first compound 0.08 µM, partner dose 1 µM), the “cleaved PARP positive nuclei fraction” value with MZ2-MEL was determined as 54.7%; with MeWo, 163%; with RPMI7951 it was 180%; in the assay on RVH-421 it was 78.5%; in the assay on SkMel28, 149%; in the assay on SkMel30 it was 51.4%. Besides, the “cleaved PARP positive nuclei fraction” value is 144% with SkMel5, 252% in the assay with UACC257 and 180% in the assay with UACC62.
In the case of `Cc1ccc(NC(=O)c2cccc(N(C)C)c2)cc1NC(=O)c1ccc(O)cc1` + COc1cc(N2CCC(N3CCN(C)CC3)CC2)ccc1Nc1ncc(Cl)c(Nc2ccccc2S(=O)(=O)C(C)C)n1 [NVP-TAE684] (first compound 2 µM, partner dose 0.08 µM), the “cleaved PARP positive nuclei fraction” value in the assay on MZ2-MEL stood at 171%; with MeWo, 52.9%; in the assay with RPMI7951, 71.2%; in the assay with RVH-421 it was 114%; with SkMel28 it was 238%; with SkMel30 it was 34.2%. Besides, the “cleaved PARP positive nuclei fraction” value with SkMel5 amounted to 51.4%; in the assay on UACC257, 238%; in the assay on UACC62, 702%.
On to `CO[C@@H]1[C@H](N(C)C(=O)c2ccccc2)C[C@H]2O[C@]1(C)n1c3ccccc3c3c4c(c5c6ccccc6n2c5c31)C(=O)NC4` [Midostaurin] + CCCCCCCCCCCC1=C(O)C(=O)C=C(O)C1=O [Embelin] (first compound 0.08 µM, partner dose 1.2 µM), for which the “cleaved PARP positive nuclei fraction” value in the assay with MZ2-MEL came to 28.3%; in the assay with MeWo, 49.1%; in the assay with RPMI7951, 142%; in the assay on RVH-421, 154%; in the assay on SkMel28, 122%; with SkMel30, 99%. Also, the entries for the “cleaved PARP positive nuclei fraction” value in the assay with SkMel5, in the assay on UACC257 and in the assay with UACC62 were 74.2%, 43.9% and 82.9%, respectively.
As for `Nc1cccc2c1CN(C1CCC(=O)NC1=O)C2=O` (stereo not given) [lenalidomide] + O=C(Nc1ccccc1)c1cc([N+](=O)[O-])ccc1Cl [GW9662] (first compound 1 µM, partner dose 2 µM), the “cleaved PARP positive nuclei fraction” value in the assay on MZ2-MEL came to 183%; in the assay with MeWo, 55.4%; in the assay on RPMI7951 it was 83.4%; with RVH-421, 157%; in the assay with SkMel28 it was 227%; with SkMel30, 86.6%. Further, the “cleaved PARP positive nuclei fraction” value with SkMel5 was 154%; in the assay on UACC257 it was 57%; in the assay on UACC62, 133%.
As to `Cc1ccc(NC(=O)c2cccc(N(C)C)c2)cc1NC(=O)c1ccc(O)cc1` + CCc1ccc(CCOc2ccc(CC3SC(=O)NC3=O)cc2)nc1 [pioglitazone] (first compound 2 µM, partner dose 2 µM), the “cleaved PARP positive nuclei fraction” value with MZ2-MEL came to 160%; with MeWo it was 53.2%; in the assay on RPMI7951, 171%; in the assay on RVH-421, 249%; with SkMel28, 214%; in the assay on SkMel30 it was 46.8%. The “cleaved PARP positive nuclei fraction” value in the assay on SkMel5 was determined as 49.5%; with UACC257, 256%; in the assay with UACC62 it was 82.8%.
